Measurements: patent EP0533352A2 (LYNXVALE LIMITED, priority 1991, dated 1993)
At least one structure is not confirmed: it was looked up by name or label, or the drawing left a doubt.

System: Rabbit urinary bladder smooth muscle strips
Experiment: Nerve mediated contractions of rabbit urinary bladder muscle strips induced by electrical field stimulation
Format: cell-based

Question: How did the “antagonism of the inhibition produced by GABA (change of EC₅₀)” value turn out when CN1CCc2cc3c(cc2[C@H]1[C@@H]1OC(=O)c2c1ccc1c2OCO1)OCO3 [biocuculline methobromide, bicuculline methobromide] was run?
Answer: Its value is “no significant change”.

Question: What about the “change in the maximum response of GABA” value of the same compound?
Answer: Its value is “significant increase”.
